# Measured values reported in PubChem BioAssay.
# This list was built around the results that the source calls inconclusive (neither active nor inactive); the mix of calls is not that of the screen. For some assays here: Potencies beside an inconclusive call are fits to weak or partial responses and may not hold up. The source made the active and inactive calls. Unless noted, no cut-off is given here; in the data, nearly all actives have AC50 up to about 26 µM.
# How the values were obtained:
# [1] = growth inhibition of DIPG glioma cells, dose response, cell-based, SU-DIPG-XVII, MIPE5.0, CellTiter-Glo, qHTS (AID 1347060); settings: SU-DIPG-XVII viability, CellTiter-Glo ATP luminescence;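 for AC50: cells exposed to compound for 48 hours before viability readout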
# [2] = growth inhibition of DIPG glioma cells, dose response, cell-based, SU-DIPG-XIII, MIPE4.0, CellTiter-Glo, qHTS (AID 1347061; cut-off not given, nearly all actives have AC50 up to about 37 µM;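 note: cells exposed to compound for 48 hours before readout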); settings: SU-DIPG-XIII viability, CellTiter-Glo ATP luminescence
# [3] = growth inhibition of DIPG glioma cells, dose response, cell-based, SU-DIPG-IV, MIPE4.0, CellTiter-Glo, qHTS (AID 1347063; cut-off not given, nearly all actives have AC50 up to about 30 µM;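 note: compound exposure lasted 48 hours before the viability readout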); settings: SU-DIPG-IV viability, CellTiter-Glo ATP luminescence
# [4] = growth inhibition of DIPG glioma cells, dose response, cell-based, SU-DIPG-XIII, MIPE5.0, CellTiter-Glo, qHTS (AID 1347064; cut-off not given, nearly all actives have AC50 up to about 23 µM;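 for AC50: cells exposed to compound for 48 hours before the viability read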); settings: SU-DIPG-XIII viability, CellTiter-Glo ATP luminescence
# [5] = viability loss in pontine glioma line – cell-based, SU-DIPG-XXV, MIPE5.0, CellTiter-Glo, qHTS, dose response (AID 1347065); settings: CellTiter-Glo ATP luminescence;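 note: cells exposed to compound for 48 hours before ATP readout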
# [6] = SU-DIPG-VI glioma cell viability, MIPE4.0 library, CellTiter-Glo luminescence, qHTS (AID 1347066; cut-off not given, nearly all actives have AC50 up to about 30 µM;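 note: cells exposed to compound for 48 hours before readout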); settings: CellTiter-Glo ATP luminescence
# [7] = inhibitors of polyQ aggregate elongation, biochemical, solid-phase synthetic aggregates, QA3 (AID 1585; call rule not given here); settings: biotin-polyQ incorporation, at 100 µM, active compounds read high
# [8] = polyglutamine aggregation reduction, turbidity readout, qthio, single concentration 25 µM screen (AID 1588; call rule not given here); settings: at 25 µM, active compounds read low
# [9] = protection of motor neurons from glutamate death, cell-based, TUNEL DNA degradation staining, MNGlu (AID 1594; call rule not given here); settings: glutamate-induced death, at 1 µM, active compounds read high
# [10] = enhancers of SMN2 over SMN1 splicing, cell-based, SMN2/SMN1 luciferase reporters (AID 1598; call rule not given here); settings: SMN2 vs SMN1 luciferase splicing reporter cells; at 10 µM; active compounds read high
# [11] = growth inhibition of DIPG glioma cells, dose response, cell-based, JHH-DIPG-1, MIPE4.0, CellTiter-Glo, qHTS (AID 1347062; cut-off not given, nearly all actives have AC50 up to about 27 µM;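 for AC50: cells exposed to compound for two days before readout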); settings: JHH-DIPG-1 viability, CellTiter-Glo ATP luminescence
# [12] = SU-DIPG-XXV glioma cell viability, MIPE5.0 library, qHTS (AID 1347068; cut-off not given, nearly all actives have IC50 up to about 30 µM;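 for IC50: cells exposed to compound for 48 hours before viability readout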)
# [13] = JHH-DIPG-1 glioma cell viability, MIPE5.0 library, CellTiter-Glo luminescence, qHTS (AID 1347067); settings: JHH-DIPG-1 glioma viability, CellTiter-Glo ATP luminescence;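 note: cells exposed to compound for 48 hours before readout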
compound,measurement,setting,value
C[C@@]1(c2cc(-c3cncnc3)c(F)cc2F)CCSC(N)=N1,outcome,[1],inactive
same,AC50,[2],active: 14.8 µM
same,AC50,[3],inconclusive: 10.5 µM [cytotoxic]
same,outcome,[4],inactive
same,outcome,[5],inactive
CCCc1nc2c(C)cc(-c3nc4ccccc4n3C)cc2n1Cc1ccc(-c2ccccc2C(=O)O)cc1,outcome,[1],inactive
same,outcome,[2],inactive
same,outcome,[3],inactive
same,outcome,[4],inactive
same,outcome,[5],inactive
same,outcome,[6],inactive
Cc1noc(-c2ccc(CSCCC(=O)O)cc2)c1NC(=O)OC(C)c1ccccc1Cl (stereo not given),AC50,[1],inconclusive: 6.61 µM [cytotoxic]
same,AC50,[2],inconclusive: 16.6 µM
same,outcome,[3],inactive
same,outcome,[4],inactive
same,outcome,[5],inactive
O=C(O)CCNC(=O)c1ccc(N=Nc2ccc(O)c(C(=O)O)c2)cc1,outcome,[1],inactive
same,outcome,[2],inactive
same,AC50,[3],inconclusive: 1.32 µM [cytotoxic]
same,outcome,[4],inactive
same,outcome,[5],inactive
same,outcome,[6],inactive
C[C@H]1O[C@@H](n2cc(F)c(=O)[nH]c2=O)[C@H](O)[C@@H]1O,AC50,[1],inconclusive: 5.25 µM [cytotoxic]
same,AC50,[2],inconclusive: 8.33 µM [cytotoxic]
same,AC50,[3],inconclusive: 11.8 µM [cytotoxic]
same,AC50,[4],inconclusive: 0.00186 µM
same,AC50,[5],inconclusive: 20.9 µM [cytotoxic]
CN1C(C(=O)Nc2ccccn2)=C(O)c2sc(Cl)cc2S1(=O)=O,outcome,[1],inactive
same,AC50,[2],inconclusive: 26.4 µM [cytotoxic]
same,outcome,[3],inactive
same,AC50,[4],inconclusive: 33.2 µM [cytotoxic]
CCCCc1oc2ccccc2c1C(=O)c1cc(I)c(OCCN(CC)CC)c(I)c1,inhibition,[7],inconclusive: 15.5%
same,aggregation (% of control),[8],inconclusive: 101%
same,protection,[9],inconclusive: -1%
same,SMN2/SMN1 luciferase ratio,[10],inconclusive: 0.93
same,AC50,[1],active: 13.2 µM
same,AC50,[2],active: 7.43 µM
same,AC50,[11],active: 23.5 µM
same,AC50,[5],inconclusive: 8.33 µM [cytotoxic]
same,IC50,[12],active: 23.5 µM
O=C(c1cncc(Br)c1)N1CCC(N2CCCC2)CC1,outcome,[1],inactive
same,outcome,[2],inactive
same,outcome,[3],inactive
same,outcome,[4],inactive
same,outcome,[5],inactive
same,AC50,[6],inconclusive: 0.0332 µM [cytotoxic]
same,AC50,[13],active: 13.2 µM
Cc1cc([C@@H](C)Nc2ccccc2C(=O)O)c2nc(N3CCOCC3)cc(=O)n2c1,AC50,[1],active: 16.6 µM
same,AC50,[2],active: 42.9 µM
same,AC50,[11],inconclusive: 13.6 µM [cytotoxic]
same,AC50,[13],inconclusive: 14.8 µM [cytotoxic]
same,IC50,[12],inconclusive: 10.5 µM [cytotoxic]
Cc1cc(Nc2cc(CN3CCOCC3)c3nc(C)c(Cc4ccc(Cl)cc4F)n3n2)n[nH]1,AC50,[1],active: 1.32 µM
same,AC50,[2],inconclusive: 18.7 µM [cytotoxic]
same,AC50,[11],inconclusive: 33.2 µM [cytotoxic]
same,AC50,[5],active: 1.18 µM
same,AC50,[6],active: 23.5 µM
same,IC50,[12],active: 8.33 µM
CCNc1cc(NC2CCC(O)CC2)nc(Nc2ccc3c(ccn3Cc3ccccc3)c2)n1 (stereo not given),AC50,[1],inconclusive: 0.263 µM [cytotoxic]
same,outcome,[2],inactive
same,AC50,[11],active: 26.4 µM
same,AC50,[6],inconclusive: 26.4 µM [cytotoxic]
same,IC50,[12],inconclusive: 0.235 µM
COc1cccc(Nc2c(C(N)=O)cnc3c(C)cc(S(=O)(=O)c4cccc(C(=O)N(C)C)c4)cc23)c1,outcome,[1],inactive
same,AC50,[2],inconclusive: 11.5 µM [cytotoxic]
same,outcome,[3],inactive
same,outcome,[4],inactive
same,outcome,[5],inconclusive
same,outcome,[6],inactive
Cc1cc(NC(=O)Nc2ccc(N(C)C)cc2)c2cc(F)cc(F)c2n1,outcome,[1],inactive
same,outcome,[2],inactive
same,AC50,[3],inconclusive: 5.9 µM [cytotoxic]
same,outcome,[4],inactive
same,AC50,[5],inconclusive: 18.2 µM [cytotoxic]
same,outcome,[6],inactive
same,outcome,[13],inactive
N#Cc1c(NC(=O)c2cccc3ccccc23)sc2c1CCCC2,AC50,[1],active: 0.372 µM
same,AC50,[2],inconclusive: 2.09 µM [cytotoxic]
same,AC50,[11],inconclusive: 0.469 µM [cytotoxic]
same,AC50,[13],active: 0.263 µM
same,IC50,[12],active: 0.235 µM
Cc1ccc(/C=N/NC(=O)c2ccccc2Oc2ccccc2)o1,outcome,[1],inactive
same,AC50,[2],inconclusive: 14.8 µM [cytotoxic]
same,AC50,[3],inconclusive: 33.2 µM [cytotoxic]
same,AC50,[4],inconclusive: 29.5 µM [cytotoxic]
same,outcome,[5],inactive
CC1(C)Cc2c(sc(NC(=S)NC(=O)c3ccccc3)c2C(=O)O)CO1,outcome,[1],inactive
same,AC50,[2],inconclusive: 18.7 µM [cytotoxic]
same,outcome,[11],inactive
same,outcome,[5],inactive
CC/C(=C(\c1ccccc1)c1ccc(OCCN(C)C)cc1)c1ccccc1,inhibition,[7],inconclusive: 36.9%
same,aggregation (% of control),[8],inconclusive: 106%
same,SMN2/SMN1 luciferase ratio,[10],inconclusive: 1.02
same,AC50,[1],active: 17.1 µM
same,AC50,[2],inconclusive: 33.2 µM [cytotoxic]
same,AC50,[11],inconclusive: 20.9 µM [cytotoxic]
same,AC50,[6],active: 23.5 µM
Cc1cc(C(C)Nc2ccccc2)c2nc(N3CCOCC3)cc(=O)n2c1 (stereo not given),AC50,[1],inconclusive: 13.2 µM [cytotoxic]
same,outcome,[2],inactive
same,AC50,[3],inconclusive: 20.9 µM [cytotoxic]
same,AC50,[4],inconclusive: 9.34 µM [cytotoxic]
same,AC50,[5],inconclusive: 4.17 µM [cytotoxic]
C[C@H](c1ccc(F)cc1CCCC(=O)O)N(c1cc(F)ccc1F)S(=O)(=O)c1ccc(Cl)cc1,AC50,[1],inconclusive: 0.661 µM [cytotoxic]
same,AC50,[2],inconclusive: 14.8 µM [cytotoxic]
same,outcome,[3],inactive
same,AC50,[4],inconclusive: 4.68 µM [cytotoxic]
same,AC50,[5],inconclusive: 0.0105 µM [cytotoxic]
Cc1cn2cc(C(=O)N(C)CCO)cc(N[C@@H]3CCOc4cccc(C)c43)c2n1,AC50,[1],inconclusive: 0.0372 µM [cytotoxic]
same,AC50,[2],inconclusive: 37.2 µM [cytotoxic]
same,outcome,[3],inactive
same,outcome,[4],inactive
same,AC50,[5],inconclusive: 1.48 µM [cytotoxic]
same,outcome,[6],inactive
same,outcome,[13],inactive
Cn1c(NCCN(CCO)CCCc2ccc([N+](=O)[O-])cc2)cc(=O)n(C)c1=O,outcome,[1],inactive
same,AC50,[2],inconclusive: 9.35 µM [cytotoxic]
same,AC50,[11],inconclusive: 29.6 µM [cytotoxic]
same,AC50,[6],inconclusive: 37.2 µM [cytotoxic]
same,outcome,[12],inactive
Cn1cc(-c2[nH]c3cc(NC(=O)[C@H](N)C4CCCCC4)cc4c3c2C=NNC4=O)cn1,AC50,[1],inconclusive: 8.33 µM [cytotoxic]
same,AC50,[2],inconclusive: 2.64 µM [cytotoxic]
same,AC50,[11],active: 0.418 µM
same,AC50,[6],inconclusive: 18.7 µM [cytotoxic]
same,AC50,[13],active: 16.6 µM
same,IC50,[12],active: 4.68 µM
C[C@H](NC(=O)[C@@H](O)c1cc(F)cc(F)c1)C(=O)N[C@@H]1C(=O)N(C)c2ccccc2-c2ccccc21,AC50,[1],inconclusive: 4.17 µM [cytotoxic]
same,AC50,[2],inconclusive: 5.9 µM [cytotoxic]
same,outcome,[3],inactive
same,outcome,[4],inactive
same,AC50,[5],inconclusive: 0.118 µM [cytotoxic]
same,outcome,[6],inactive
CCn1nnc2c(N3CCOCC3)nc(-c3ccc(NC(=O)Nc4ccc(C(=O)N5CCN(C)CC5)cc4)cc3)nc21,AC50,[1],active: 0.372 µM
same,AC50,[2],inconclusive: 0.0833 µM [cytotoxic]
same,AC50,[11],active: 0.469 µM
same,AC50,[5],active: 0.372 µM
same,AC50,[6],active: 0.166 µM
same,AC50,[13],active: 0.934 µM
same,IC50,[12],active: 0.742 µM
CC(C)(C)C(=O)Oc1ccc(S(=O)(=O)Nc2ccccc2C(=O)NCC(=O)O)cc1,outcome,[1],inactive
same,outcome,[2],inactive
same,AC50,[3],inconclusive: 0.00132 µM
same,outcome,[4],inactive
same,AC50,[5],inconclusive: 11.8 µM
same,AC50,[6],inconclusive: 0.00118 µM
same,AC50,[13],inconclusive: 0.00105 µM
O=C(NC(Cc1cc(=O)[nH]c2ccccc12)C(=O)O)c1ccc(Cl)cc1 (stereo not given),outcome,[1],inactive
same,AC50,[2],inconclusive: 33.2 µM [cytotoxic]
same,outcome,[3],inactive
same,outcome,[4],inactive
same,AC50,[5],inconclusive: 0.00296 µM [cytotoxic]
same,outcome,[6],inactive
CC(C)(C)C(=O)OCOP(=O)(COCCn1cnc2c(N)ncnc21)OCOC(=O)C(C)(C)C,AC50,[1],inconclusive: 5.9 µM [cytotoxic]
same,AC50,[2],active: 20.9 µM
same,AC50,[11],inconclusive: 23.5 µM [cytotoxic]
same,AC50,[13],inconclusive: 16.6 µM [cytotoxic]
same,outcome,[12],inactive
O=C1NC(=O)/C(=C/c2cccc(C(F)(F)F)c2)S1,outcome,[1],inactive
same,AC50,[2],inconclusive: 37.2 µM [cytotoxic]
same,AC50,[3],inconclusive: 13.2 µM [cytotoxic]
same,AC50,[4],inconclusive: 20.9 µM [cytotoxic]
Fc1cc(-c2cccc3ncc(-c4cnn(C5CCNCC5)c4)nc23)cc(F)c1CN1CCOCC1,AC50,[1],inconclusive: 0.833 µM [cytotoxic]
same,AC50,[2],inconclusive: 5.9 µM [cytotoxic]
same,AC50,[11],active: 20.9 µM
same,AC50,[6],active: 23.5 µM
COc1cc(OC)c(/C=C/S(=O)(=O)Cc2ccc(OC)c(NCC(=O)O)c2)c(OC)c1,AC50,[1],active: 0.0934 µM
same,AC50,[2],inconclusive: 0.743 µM [cytotoxic]
same,AC50,[11],active: 0.935 µM
same,AC50,[6],inconclusive: 1.05 µM [cytotoxic]
same,IC50,[12],active: 0.0661 µM
CCOC(=O)C(C)Oc1cccc2c(=O)n(CC(=O)Nc3ccc4c(c3)OCCO4)ccc12 (stereo not given),AC50,[1],inconclusive: 29.5 µM [cytotoxic]
same,outcome,[2],inactive
same,outcome,[3],inactive
same,AC50,[4],active: 20.9 µM
same,AC50,[5],inconclusive: 23.5 µM [cytotoxic]
same,AC50,[6],inconclusive: 0.00187 µM [cytotoxic]
CN(c1ncccc1CNc1nc(Nc2ccc3c(c2)CC(=O)N3)ncc1C(F)(F)F)S(C)(=O)=O,AC50,[1],active: 5.25 µM
same,AC50,[2],inconclusive: 7.43 µM [cytotoxic]
same,AC50,[3],active: 4.18 µM
same,AC50,[4],active: 8.33 µM
same,AC50,[5],active: 3.72 µM
same,AC50,[6],inconclusive: 4.69 µM [cytotoxic]
O=C1c2c(O)cc(O)cc2O[C@H](c2ccc(O)c(O)c2)[C@H]1O,AC50,[1],inconclusive: 29.5 µM [cytotoxic]
same,AC50,[2],inconclusive: 18.7 µM [cytotoxic]
same,AC50,[3],inconclusive: 0.00105 µM [cytotoxic]
same,AC50,[4],inconclusive: 0.118 µM [cytotoxic]
